The supplement of paper PMC12067093, “Discovery and optimisation of a covalent ligand for TRIM25 and its application to targeted protein ubiquitination” (Chemical Science, 2025)
Some of the results follow.

Chains of the proteins cited; added tags and fusions are not shown. Lines headed by an entry give the natural chain unless they say otherwise; changes in a name come on top.
UniProt Q86SQ7: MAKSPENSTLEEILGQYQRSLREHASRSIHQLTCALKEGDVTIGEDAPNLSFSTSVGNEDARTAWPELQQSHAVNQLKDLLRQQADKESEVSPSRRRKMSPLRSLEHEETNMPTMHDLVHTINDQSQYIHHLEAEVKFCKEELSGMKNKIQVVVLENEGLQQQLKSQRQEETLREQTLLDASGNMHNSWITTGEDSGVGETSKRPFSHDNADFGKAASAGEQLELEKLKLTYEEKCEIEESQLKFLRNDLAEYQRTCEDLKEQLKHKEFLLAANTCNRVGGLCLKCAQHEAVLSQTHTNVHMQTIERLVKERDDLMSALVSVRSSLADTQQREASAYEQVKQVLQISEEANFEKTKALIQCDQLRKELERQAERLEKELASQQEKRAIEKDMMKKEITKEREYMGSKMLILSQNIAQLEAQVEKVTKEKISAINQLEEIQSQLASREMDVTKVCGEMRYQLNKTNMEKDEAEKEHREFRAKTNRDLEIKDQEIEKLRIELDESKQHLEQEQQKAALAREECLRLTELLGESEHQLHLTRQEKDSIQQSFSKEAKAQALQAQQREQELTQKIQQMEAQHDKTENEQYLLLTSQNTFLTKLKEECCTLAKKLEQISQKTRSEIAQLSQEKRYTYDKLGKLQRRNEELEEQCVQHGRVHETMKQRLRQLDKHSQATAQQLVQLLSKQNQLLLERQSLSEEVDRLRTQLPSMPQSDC
UniProt O94855: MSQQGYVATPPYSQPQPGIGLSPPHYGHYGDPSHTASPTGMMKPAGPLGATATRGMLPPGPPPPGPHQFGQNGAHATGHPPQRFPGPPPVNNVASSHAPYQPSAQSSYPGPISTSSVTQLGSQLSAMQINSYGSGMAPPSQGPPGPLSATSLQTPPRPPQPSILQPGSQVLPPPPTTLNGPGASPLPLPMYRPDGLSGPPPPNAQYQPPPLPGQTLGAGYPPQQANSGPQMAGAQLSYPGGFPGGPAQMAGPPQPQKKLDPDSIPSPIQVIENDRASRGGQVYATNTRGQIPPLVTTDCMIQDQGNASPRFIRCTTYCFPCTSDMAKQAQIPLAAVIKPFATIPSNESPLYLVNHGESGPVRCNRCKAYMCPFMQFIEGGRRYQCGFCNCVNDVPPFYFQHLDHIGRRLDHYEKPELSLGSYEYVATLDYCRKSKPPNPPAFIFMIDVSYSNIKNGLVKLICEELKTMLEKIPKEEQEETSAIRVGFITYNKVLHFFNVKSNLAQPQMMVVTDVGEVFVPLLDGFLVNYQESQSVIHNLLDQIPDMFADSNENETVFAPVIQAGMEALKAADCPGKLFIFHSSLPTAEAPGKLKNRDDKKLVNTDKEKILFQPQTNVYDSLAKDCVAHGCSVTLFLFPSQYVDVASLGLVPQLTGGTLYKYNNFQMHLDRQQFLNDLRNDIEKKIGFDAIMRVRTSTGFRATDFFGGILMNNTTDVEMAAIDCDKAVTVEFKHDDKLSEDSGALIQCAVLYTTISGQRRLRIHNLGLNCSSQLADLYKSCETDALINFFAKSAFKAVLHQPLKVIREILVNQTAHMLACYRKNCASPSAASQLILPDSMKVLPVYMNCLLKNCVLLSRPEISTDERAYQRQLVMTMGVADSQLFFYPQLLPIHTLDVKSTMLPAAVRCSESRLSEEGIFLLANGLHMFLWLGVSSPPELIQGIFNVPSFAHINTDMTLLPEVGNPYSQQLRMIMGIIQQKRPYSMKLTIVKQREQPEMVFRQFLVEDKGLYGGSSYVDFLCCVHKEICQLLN
UniProt Q15020: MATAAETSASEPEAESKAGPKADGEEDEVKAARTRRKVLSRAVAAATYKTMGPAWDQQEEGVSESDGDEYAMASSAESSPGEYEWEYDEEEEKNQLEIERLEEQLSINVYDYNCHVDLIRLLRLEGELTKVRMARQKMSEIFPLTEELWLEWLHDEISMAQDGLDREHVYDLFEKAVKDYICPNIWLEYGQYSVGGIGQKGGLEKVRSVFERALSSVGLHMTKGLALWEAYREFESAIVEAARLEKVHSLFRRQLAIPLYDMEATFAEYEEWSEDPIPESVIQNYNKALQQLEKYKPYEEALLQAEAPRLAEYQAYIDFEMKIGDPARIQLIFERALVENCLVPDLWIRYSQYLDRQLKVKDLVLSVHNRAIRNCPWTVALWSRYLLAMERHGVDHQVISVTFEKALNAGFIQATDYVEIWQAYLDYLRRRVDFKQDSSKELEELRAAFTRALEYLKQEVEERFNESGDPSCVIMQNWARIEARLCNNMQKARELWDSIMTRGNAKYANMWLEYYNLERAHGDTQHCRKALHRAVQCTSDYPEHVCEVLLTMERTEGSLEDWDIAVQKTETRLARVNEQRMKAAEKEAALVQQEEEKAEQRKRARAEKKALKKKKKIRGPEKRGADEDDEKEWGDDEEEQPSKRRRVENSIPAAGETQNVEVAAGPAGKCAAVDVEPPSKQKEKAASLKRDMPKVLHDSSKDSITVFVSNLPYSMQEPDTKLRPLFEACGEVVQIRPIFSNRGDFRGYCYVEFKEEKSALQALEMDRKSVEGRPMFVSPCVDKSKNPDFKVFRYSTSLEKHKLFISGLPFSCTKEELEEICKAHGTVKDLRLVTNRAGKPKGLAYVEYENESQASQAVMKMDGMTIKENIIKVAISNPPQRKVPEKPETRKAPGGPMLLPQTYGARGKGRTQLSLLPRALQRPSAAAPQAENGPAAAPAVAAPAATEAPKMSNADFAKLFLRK
UniProt P55735: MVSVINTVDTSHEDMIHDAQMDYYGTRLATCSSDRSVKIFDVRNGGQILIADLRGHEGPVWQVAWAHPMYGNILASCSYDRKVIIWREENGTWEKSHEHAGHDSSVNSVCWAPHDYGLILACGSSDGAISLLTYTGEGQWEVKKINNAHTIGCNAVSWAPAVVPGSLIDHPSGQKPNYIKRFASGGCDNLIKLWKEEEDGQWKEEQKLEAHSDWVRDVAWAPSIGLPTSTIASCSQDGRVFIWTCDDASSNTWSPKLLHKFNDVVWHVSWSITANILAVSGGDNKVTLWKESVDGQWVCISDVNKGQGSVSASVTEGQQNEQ
UniProt Q15436: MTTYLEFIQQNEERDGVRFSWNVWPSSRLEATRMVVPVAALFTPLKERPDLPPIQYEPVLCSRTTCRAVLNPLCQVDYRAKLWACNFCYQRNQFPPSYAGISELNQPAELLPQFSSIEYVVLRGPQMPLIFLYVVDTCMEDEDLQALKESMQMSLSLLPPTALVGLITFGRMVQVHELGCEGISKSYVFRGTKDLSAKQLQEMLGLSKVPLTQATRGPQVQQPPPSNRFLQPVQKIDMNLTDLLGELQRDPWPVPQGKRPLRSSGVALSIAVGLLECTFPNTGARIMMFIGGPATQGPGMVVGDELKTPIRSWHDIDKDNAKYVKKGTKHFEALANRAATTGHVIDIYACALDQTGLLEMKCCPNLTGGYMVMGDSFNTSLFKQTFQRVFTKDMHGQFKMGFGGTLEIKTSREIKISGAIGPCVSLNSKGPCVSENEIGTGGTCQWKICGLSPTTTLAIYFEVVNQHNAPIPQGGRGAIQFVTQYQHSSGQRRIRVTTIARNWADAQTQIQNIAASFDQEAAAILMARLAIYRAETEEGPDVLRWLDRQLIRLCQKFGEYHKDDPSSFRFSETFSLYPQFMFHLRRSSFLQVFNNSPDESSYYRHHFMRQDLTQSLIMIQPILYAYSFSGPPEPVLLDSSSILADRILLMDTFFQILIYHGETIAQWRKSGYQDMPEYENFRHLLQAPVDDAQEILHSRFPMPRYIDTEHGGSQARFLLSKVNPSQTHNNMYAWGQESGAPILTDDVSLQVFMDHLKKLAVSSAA
UniProt Q9UBV2: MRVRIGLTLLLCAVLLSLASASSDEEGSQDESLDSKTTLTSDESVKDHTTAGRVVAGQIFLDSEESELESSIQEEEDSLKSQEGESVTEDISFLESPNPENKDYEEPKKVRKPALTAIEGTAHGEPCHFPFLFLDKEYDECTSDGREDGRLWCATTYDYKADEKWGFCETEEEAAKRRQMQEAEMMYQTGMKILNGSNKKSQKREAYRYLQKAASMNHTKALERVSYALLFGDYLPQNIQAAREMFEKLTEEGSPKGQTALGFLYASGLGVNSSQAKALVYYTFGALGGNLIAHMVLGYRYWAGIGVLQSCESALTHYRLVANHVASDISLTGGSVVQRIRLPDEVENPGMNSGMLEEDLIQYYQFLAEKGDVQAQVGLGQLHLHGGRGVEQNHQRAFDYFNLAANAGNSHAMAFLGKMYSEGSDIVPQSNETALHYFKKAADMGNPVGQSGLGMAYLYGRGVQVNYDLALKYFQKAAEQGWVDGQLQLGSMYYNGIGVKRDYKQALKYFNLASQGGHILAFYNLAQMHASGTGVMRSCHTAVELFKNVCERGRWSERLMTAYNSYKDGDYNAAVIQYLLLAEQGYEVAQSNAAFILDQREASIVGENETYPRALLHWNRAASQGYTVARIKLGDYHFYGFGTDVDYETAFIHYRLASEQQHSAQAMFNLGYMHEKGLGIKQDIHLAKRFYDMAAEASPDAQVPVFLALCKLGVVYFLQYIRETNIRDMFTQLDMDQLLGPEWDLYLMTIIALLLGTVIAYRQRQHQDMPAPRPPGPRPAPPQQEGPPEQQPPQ
UniProt O94979: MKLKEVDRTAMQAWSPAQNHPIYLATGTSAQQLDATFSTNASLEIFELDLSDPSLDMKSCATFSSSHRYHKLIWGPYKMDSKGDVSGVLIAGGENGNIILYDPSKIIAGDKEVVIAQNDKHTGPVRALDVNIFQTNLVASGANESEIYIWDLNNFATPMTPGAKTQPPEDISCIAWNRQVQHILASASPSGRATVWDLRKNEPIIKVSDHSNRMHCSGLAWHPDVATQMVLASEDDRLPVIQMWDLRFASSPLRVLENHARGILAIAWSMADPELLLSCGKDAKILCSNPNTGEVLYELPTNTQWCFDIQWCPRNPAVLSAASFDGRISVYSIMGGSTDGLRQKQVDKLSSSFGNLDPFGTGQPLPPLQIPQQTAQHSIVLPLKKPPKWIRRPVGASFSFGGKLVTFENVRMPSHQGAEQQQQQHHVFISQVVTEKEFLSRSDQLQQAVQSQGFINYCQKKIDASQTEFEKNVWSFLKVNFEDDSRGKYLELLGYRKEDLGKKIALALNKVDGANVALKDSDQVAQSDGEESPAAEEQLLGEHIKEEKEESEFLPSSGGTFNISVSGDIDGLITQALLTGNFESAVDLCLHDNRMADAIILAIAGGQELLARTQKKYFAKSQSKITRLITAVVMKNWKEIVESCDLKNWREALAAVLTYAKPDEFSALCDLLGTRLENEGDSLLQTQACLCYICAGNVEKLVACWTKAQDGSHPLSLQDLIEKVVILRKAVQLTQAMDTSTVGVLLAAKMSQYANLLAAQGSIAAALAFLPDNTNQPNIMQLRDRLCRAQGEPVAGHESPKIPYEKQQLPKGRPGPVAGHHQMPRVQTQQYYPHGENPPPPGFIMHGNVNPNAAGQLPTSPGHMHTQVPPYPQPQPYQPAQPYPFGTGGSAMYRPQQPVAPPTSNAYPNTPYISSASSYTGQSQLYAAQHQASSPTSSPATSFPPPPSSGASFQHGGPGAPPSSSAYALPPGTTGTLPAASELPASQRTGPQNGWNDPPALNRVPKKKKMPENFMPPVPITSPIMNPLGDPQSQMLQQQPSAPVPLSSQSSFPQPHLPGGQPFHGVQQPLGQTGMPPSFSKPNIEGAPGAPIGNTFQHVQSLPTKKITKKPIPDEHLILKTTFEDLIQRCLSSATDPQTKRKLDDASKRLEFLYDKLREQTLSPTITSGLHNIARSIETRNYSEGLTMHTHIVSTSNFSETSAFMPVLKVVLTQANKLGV
UniProt P31040: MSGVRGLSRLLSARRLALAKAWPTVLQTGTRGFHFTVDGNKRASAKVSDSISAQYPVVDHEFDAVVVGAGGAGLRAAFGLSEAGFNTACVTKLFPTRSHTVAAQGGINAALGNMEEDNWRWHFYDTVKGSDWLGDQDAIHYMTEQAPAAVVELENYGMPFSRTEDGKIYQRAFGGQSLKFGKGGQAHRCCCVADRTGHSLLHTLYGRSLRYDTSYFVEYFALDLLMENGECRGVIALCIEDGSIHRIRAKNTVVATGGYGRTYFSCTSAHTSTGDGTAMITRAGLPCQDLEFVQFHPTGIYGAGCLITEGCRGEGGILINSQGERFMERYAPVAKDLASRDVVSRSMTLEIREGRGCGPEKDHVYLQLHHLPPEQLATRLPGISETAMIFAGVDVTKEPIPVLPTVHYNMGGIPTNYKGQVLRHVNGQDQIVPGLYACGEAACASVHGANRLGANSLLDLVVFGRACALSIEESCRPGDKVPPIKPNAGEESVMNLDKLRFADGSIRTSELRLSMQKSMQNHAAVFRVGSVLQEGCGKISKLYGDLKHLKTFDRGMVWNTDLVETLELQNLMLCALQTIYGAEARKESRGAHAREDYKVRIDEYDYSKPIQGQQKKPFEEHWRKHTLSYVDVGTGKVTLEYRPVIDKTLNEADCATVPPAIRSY

Compound: CC1Cc2ccccc2N1C(=O)C1CCCN(C1)C(=O)CCl (mixture of isomers) [TRIM25 ligand 11 (diastereomer mixture)]
Test: probe-labelled cysteine peptide fold change vs DMSO (competition) (log2 fold change); higher = less target engagement (more negative = stronger competition)
Conditions: THP-1, incubation time: 4 h
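Note: competitive chemoproteomic profiling in live THP-1 cells with an iodoacetamide desthiobiotin (IA-DTB) probe, comparing probe-labelled peptide intensities in compound-treated cells against DMSO-treated controls.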

“SDCCAG8_Q86SQ7_361_ALIQCDQLR (UniProt Q86SQ7)” was tested, and the “probe-labelled cysteine peptide fold change” value (10 µM) was 0.0721 and the “probe-labelled cysteine peptide fold change” value (50 µM) was -0.00568.
In the case of “SCML2_Q9UQR0_51_ETGSISAPSECFR (UniProt Q9UQR0)”, the “probe-labelled cysteine peptide fold change” value (10 µM) is reported as -0.024 and the “probe-labelled cysteine peptide fold change” value (50 µM) is reported as -0.163.
In the case of “SBDS_Q9Y3A5_119_CVNPETK (UniProt Q9Y3A5)”, the “probe-labelled cysteine peptide fold change” value (10 µM) is reported as 0.0835 and the “probe-labelled cysteine peptide fold change” value (50 µM) is reported as 0.193.
For “SBF1_O95248_839_VCTESGVTSDHLK (UniProt O95248)”, the “probe-labelled cysteine peptide fold change” value (10 µM) was 0.116 and the “probe-labelled cysteine peptide fold change” value (50 µM) was 0.0908.
For “SEC24D_O94855_431_RLDHYEKPELSLGSYEYVATLDYCR (UniProt O94855)”, the “probe-labelled cysteine peptide fold change” value (10 µM) was 0.0353 and the “probe-labelled cysteine peptide fold change” value (50 µM) was 0.11.
“SDHB_P21912_243_CHTIMNCTR (UniProt P21912)” was tested, and the “probe-labelled cysteine peptide fold change” value (10 µM) was -0.0481 and the “probe-labelled cysteine peptide fold change” value (50 µM) was -0.057.
In the case of “SART3_Q15020_537_AVQCTSDYPEHVCEVLLTMER (UniProt Q15020)”, the “probe-labelled cysteine peptide fold change” value (10 µM) is reported as 0.135 and the “probe-labelled cysteine peptide fold change” value (50 µM) is reported as -0.211.
“SCIN_Q9Y6U3_619_LYGCSNK (UniProt Q9Y6U3)” was tested, and the “probe-labelled cysteine peptide fold change” value (10 µM) was 0.0224 and the “probe-labelled cysteine peptide fold change” value (50 µM) was 0.0629.
“SELENOO_Q9BVL4_629_LLETPYHCEAGAATDAEATEADGADGR (UniProt Q9BVL4)” was tested, and the “probe-labelled cysteine peptide fold change” value (10 µM) was -0.074 and the “probe-labelled cysteine peptide fold change” value (50 µM) was -0.08.
With “SDCCAG8_Q86SQ7_236_CEIEESQLK (UniProt Q86SQ7)” the “probe-labelled cysteine peptide fold change” value (10 µM) was -0.00217 and the “probe-labelled cysteine peptide fold change” value (50 µM) was 0.0169.
For “SEC24D_O94855_388+390_YQCGFCNCVNDVPPFYFQHLDHIGR (UniProt O94855)”, the “probe-labelled cysteine peptide fold change” value (10 µM) was -0.156 and the “probe-labelled cysteine peptide fold change” value (50 µM) was -0.0449.
“SATB1_Q01826_78_KGTMLPVFCVVEHYENAIEYDCK (UniProt Q01826)” was tested, and the “probe-labelled cysteine peptide fold change” value (10 µM) was 0.321 and the “probe-labelled cysteine peptide fold change” value (50 µM) was 0.323.
In the case of “SEC13_P55735_234_DVAWAPSIGLPTSTIASCSQDGR (UniProt P55735)”, the “probe-labelled cysteine peptide fold change” value (10 µM) is reported as -0.0694 and the “probe-labelled cysteine peptide fold change” value (50 µM) is reported as 0.0911.
With “SCML2_Q9UQR0_121_LVDSPDIQPVGTCEK (UniProt Q9UQR0)” the “probe-labelled cysteine peptide fold change” value (10 µM) was 0.0247 and the “probe-labelled cysteine peptide fold change” value (50 µM) was -0.0594.
In the case of “SDCBP_O00560_166_FGDQVLQINGENCAGWSSDK (UniProt O00560)”, the “probe-labelled cysteine peptide fold change” value (10 µM) is reported as -0.0251 and the “probe-labelled cysteine peptide fold change” value (50 µM) is reported as 0.0173.
In the case of “SEC23A_Q15436_180_MVQVHELGCEGISK (UniProt Q15436)”, the “probe-labelled cysteine peptide fold change” value (10 µM) is reported as 0.0868 and the “probe-labelled cysteine peptide fold change” value (50 µM) is reported as 0.0113.
With “SCFD2_Q8WU76_218_CLVSGLSSLCEHLGVR (UniProt Q8WU76)” the “probe-labelled cysteine peptide fold change” value (10 µM) was 0.0794 and the “probe-labelled cysteine peptide fold change” value (50 µM) was -0.0371.
For “SATB1_Q01826_173_IQLHSCPK (UniProt Q01826)”, the “probe-labelled cysteine peptide fold change” value (10 µM) was 0.0227 and the “probe-labelled cysteine peptide fold change” value (50 µM) was 0.0244.
“SATB1_Q01826_91_KGTMLPVFCVVEHYENAIEYDCKEEHAEFVLVR (UniProt Q01826)” was tested, and the “probe-labelled cysteine peptide fold change” value (10 µM) was 0.163 and the “probe-labelled cysteine peptide fold change” value (50 µM) was 0.111.
With “SCAF11_Q99590_553_TDVCTVHLPNDFPTCLTSESK (UniProt Q99590)” the “probe-labelled cysteine peptide fold change” value (10 µM) was 0.0519 and the “probe-labelled cysteine peptide fold change” value (50 µM) was -0.221.
In the case of “SEC23B_Q15437_180_MVQVHELSCEGISK (UniProt Q15437)”, the “probe-labelled cysteine peptide fold change” value (10 µM) is reported as 0.14 and the “probe-labelled cysteine peptide fold change” value (50 µM) is reported as 0.106.
For “SEL1L_Q9UBV2_141_EYDECTSDGREDGR (UniProt Q9UBV2)”, the “probe-labelled cysteine peptide fold change” value (10 µM) was 0.0147 and the “probe-labelled cysteine peptide fold change” value (50 µM) was -0.0218.
In the case of “SCRN1_Q12765_54_VECTYISIDQVPR (UniProt Q12765)”, the “probe-labelled cysteine peptide fold change” value (10 µM) is reported as 0.144 and the “probe-labelled cysteine peptide fold change” value (50 µM) is reported as 0.0568.
For “SEC31A_O94979_279_GILAIAWSMADPELLLSCGK (UniProt O94979)”, the “probe-labelled cysteine peptide fold change” value (10 µM) was -0.49 and the “probe-labelled cysteine peptide fold change” value (50 µM) was 0.171.
For “SAP30BP_Q9UHR5_127_CSNHLQDK (UniProt Q9UHR5)”, the “probe-labelled cysteine peptide fold change” value (10 µM) was -0.0333 and the “probe-labelled cysteine peptide fold change” value (50 µM) was -0.337.
“SATB2_Q9UPW6_246_VERENLSDYCVLGQR (UniProt Q9UPW6)” was tested, and the “probe-labelled cysteine peptide fold change” value (10 µM) was 0.0584 and the “probe-labelled cysteine peptide fold change” value (50 µM) was -0.00518.
With “SEC31A_O94979_644_EIVESCDLK (UniProt O94979)” the “probe-labelled cysteine peptide fold change” value (10 µM) was 0.0885 and the “probe-labelled cysteine peptide fold change” value (50 µM) was 0.0874.
“SART3_Q15020_114_LEEQLSINVYDYNCHVDLIR (UniProt Q15020)” was tested, and the “probe-labelled cysteine peptide fold change” value (10 µM) was 0.108 and the “probe-labelled cysteine peptide fold change” value (50 µM) was 0.087.
For “SDHA_P31040_443_HVNGQDQIVPGLYACGEAACASVHGANR (UniProt P31040)”, the “probe-labelled cysteine peptide fold change” value (10 µM) was -0.00477 and the “probe-labelled cysteine peptide fold change” value (50 µM) was -0.144.
In the case of “SEC24D_O94855_819_EILVNQTAHMLACYR (UniProt O94855)”, the “probe-labelled cysteine peptide fold change” value (10 µM) is reported as -0.000863 and the “probe-labelled cysteine peptide fold change” value (50 µM) is reported as 0.141.
For “SART3_Q15020_341_ALVENCLVPDLWIR (UniProt Q15020)”, the “probe-labelled cysteine peptide fold change” value (10 µM) was 0.138 and the “probe-labelled cysteine peptide fold change” value (50 µM) was -0.00676.
With “SCYL1_Q96KG9_503_VAGVLGFAATHNLYSMNDCAQK (UniProt Q96KG9)” the “probe-labelled cysteine peptide fold change” value (10 µM) was -0.221 and the “probe-labelled cysteine peptide fold change” value (50 µM) was -0.328.
“SATB1_Q01826_78+91_GTMLPVFCVVEHYENAIEYDCKEEHAEFVLVR (UniProt Q01826)” was tested, and the “probe-labelled cysteine peptide fold change” value (10 µM) was 0.0353 and the “probe-labelled cysteine peptide fold change” value (50 µM) was 0.0198.
In the case of “SEC23A_Q15436_88_LWACNFCYQR (UniProt Q15436)”, the “probe-labelled cysteine peptide fold change” value (10 µM) is reported as 0.0643 and the “probe-labelled cysteine peptide fold change” value (50 µM) is reported as 0.249.
With “SEL1L_Q9UBV2_153_LWCATTYDYK (UniProt Q9UBV2)” the “probe-labelled cysteine peptide fold change” value (10 µM) was -0.0117 and the “probe-labelled cysteine peptide fold change” value (50 µM) was 0.0985.
For “SDHA_P31040_475_ACALSIEESCRPGDK (UniProt P31040)”, the “probe-labelled cysteine peptide fold change” value (10 µM) was 0.243 and the “probe-labelled cysteine peptide fold change” value (50 µM) was 0.328.
With “SDF2L1_Q9HCN8_38_TGAELVTCGSVLK (UniProt Q9HCN8)” the “probe-labelled cysteine peptide fold change” value (10 µM) was -0.04 and the “probe-labelled cysteine peptide fold change” value (50 µM) was -0.128.
